Reference: patent EP1222194B1, “7-ACYLAMINO-3-HETEROARYLTHIO-3-CEPHEM CARBOXYLIC ACID ANTIBIOTICS AND PRODRUGS THEREOF” (priority 1999, dated 2001)

System: S. aureus ATCC29213
Test: Human serum binding effect (MIC with and without human serum)
Assay type: cell-based, Staphylococcus aureus
Details: Ratio of MIC value determined with and without human serum added for S. aureus ATCC29213; human serum:MHB 1:1

CN[C@H](CC(C)C)C(=O)N[C@H]1C(=O)N[C@@H](CC(N)=O)C(=O)N[C@H]2C(=O)N[C@H]3C(=O)N[C@H](C(=O)N[C@H](C(=O)O)c4cc(O)cc(O)c4-c4cc3ccc4O)[C@H](O)c3ccc(c(Cl)c3)Oc3cc2cc(c3O[C@@H]2O[C@H](CO)[C@@H](O)[C@H](O)[C@H]2O[C@H]2C[C@](C)(N)[C@H](O)[C@H](C)O2)Oc2ccc(cc2Cl)[C@H]1O [Van, Vancomycin]
Human serum binding effect: 2
